# Data taken from the supplement of paper PMC8728848.
# The other results are listed elsewhere or left out.
# B1: BabA (Helicobacter pylori), O52269_HELPY (protein)
# chain: AEDDGFYMSAGYQIGEAAQMVKNTKGIQELSDNYENLSNLLTRYSTLNTLIKLSADPSAVNAARENLGASAKNLIGDTKNSPAYQAVLLAINAAVGFWNVVGYVTQCGGNANGQKSTSSTTIFNNEPGYRSTSITCSLNGHMPGYYGPMSIENFKKLNEAYQILQTALKNGLPALKENNGTVNVTYSYTCSGEGNDNCSLQTTGVTNQNNGTKTETQTIDGKSVTTTISSKVVDSQ
# Columns and labels:
# Experiment in all cases: glycan array binding signal (z-score within array); higher = stronger binding
# Settings in all cases: glycan notation: IUPAC condensed, linker removed
# [1] = target: GlcNAc(b1-3)Gal(b1-4)GlcNAc(b1-3)Gal(b1-4)GlcNAc(b1-3)Gal(b1-4)GlcNAc(b1-3)Gal(b1-4)GlcNAc(b1-2)Man(a1-3)[GlcNAc(b1-3)Gal(b1-4)GlcNAc(b1-3)Gal(b1-4)GlcNAc(b1-3)Gal(b1-4)GlcNAc(b1-3)Gal(b1-4)GlcNAc(b1-2)Man(a1-6)]Man(b1-4)GlcNAc(b1-4)GlcNAc
# Outline: (§1)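 Glycan array binding is given as a within-array Z-score, which can be read as non-binding when negative. The arrays, 3228 of them, came from the Consortium for Functional Glycomics database and were retained only where the protein sequence was available. Z-scores were averaged across arrays of the same protein sequence at different concentrations or buffers and across linkers.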
# [2] = target: GlcNAc(b1-3)Gal(b1-4)GlcNAc(b1-3)Gal(b1-4)GlcNAc(b1-3)Gal(b1-4)GlcNAc(b1-3)Gal(b1-4)GlcNAc(b1-2)Man(a1-3)[GlcNAc(b1-3)Gal(b1-4)GlcNAc(b1-3)Gal(b1-4)GlcNAc(b1-3)Gal(b1-4)GlcNAc(b1-3)Gal(b1-4)GlcNAc(b1-2)Man(a1-6)]Man(b1-4)GlcNAc(b1-4)[Fuc(a1-6)]GlcNAc
# Outline: as §1
# [3] = target: GlcNAc(b1-3)Gal(b1-4)GlcNAc(b1-3)Gal(b1-4)GlcNAc(b1-3)Gal(b1-4)GlcNAc(b1-3)Gal(b1-4)GlcNAc(b1-2)[GlcNAc(b1-3)Gal(b1-4)GlcNAc(b1-3)Gal(b1-4)GlcNAc(b1-3)Gal(b1-4)GlcNAc(b1-3)Gal(b1-4)GlcNAc(b1-6)]Man(a1-6)[GlcNAc(b1-3)Gal(b1-4)GlcNAc(b1-3)Gal(b1-4)GlcNAc(b1-3)Gal(b1-4)GlcNAc(b1-3)Gal(b1-4)GlcNAc(b1-2)Man(a1-3)]Man(b1-4)GlcNAc(b1-4)[Fuc(a1-6)]GlcNAc
# Outline: as §1
# [4] = target: GlcNAc(b1-3)Gal(b1-4)GlcNAc(b1-3)Gal(b1-4)GlcNAc(b1-3)GalNAc
# Outline: as §1
# [5] = target: GlcNAc(b1-3)Gal(b1-4)GlcNAc(b1-3)GalNAc
# Outline: as §1
# [6] = target: GlcNAc(b1-3)Gal(b1-4)GlcNAc(b1-3)[GlcNAc(b1-3)Gal(b1-4)GlcNAc(b1-3)]GalNAc
# Outline: as §1
# [7] = target: GlcNAc(b1-3)Gal(b1-4)GlcNAc(b1-6)[Gal(b1-3)]GalNAc
# Outline: as §1
# [8] = target: GlcNAc(b1-3)Gal(b1-4)GlcNAc(b1-6)[GlcNAc(b1-3)Gal(b1-3)]GalNAc
# Outline: as §1
# [9] = target: GlcNAc(b1-3)Gal(b1-4)GlcNAc(b1-6)[GlcNAc(b1-3)]Gal(b1-4)GlcNAc
# Outline: as §1
# GlcNAc(b1-3)GalNAc = target: GlcNAc(b1-3)GalNAc
# Outline: as §1
# GlcNAc(b1-3)Man = target: GlcNAc(b1-3)Man
# Outline: as §1
# [10] = target: GlcNAc(b1-3)[GlcNAc(b1-4)][GlcNAc(b1-6)]GlcNAc
# Outline: as §1
# [11] = target: GlcNAc(b1-3)[GlcNAc(b1-6)]Gal(b1-4)GlcNAc
# Outline: as §1
# [12] = target: GlcNAc(b1-3)[GlcNAc(b1-6)]GalNAc
# Outline: as §1
# [13] = target: GlcNAc(b1-4)Gal(b1-4)GlcNAc
# Outline: as §1
# GlcNAc(b1-4)GlcNAc = target: GlcNAc(b1-4)GlcNAc
# Outline: as §1
# [14] = target: GlcNAc(b1-4)GlcNAc(b1-4)GlcNAc
# Outline: as §1
# [15] = target: GlcNAc(b1-4)GlcNAc(b1-4)GlcNAc(b1-4)GlcNAc(b1-4)GlcNAc
# Outline: as §1
# [16] = target: GlcNAc(b1-4)GlcNAc(b1-4)GlcNAc(b1-4)GlcNAc(b1-4)GlcNAc(b1-4)GlcNAc
# Outline: as §1
# [17] = target: GlcNAc(b1-4)[GlcNAc(b1-6)]GalNAc
# Outline: as §1
# [18] = target: GlcNAc(b1-6)Gal(b1-4)GlcNAc
# Outline: as §1
# GlcNAc(b1-6)GalNAc = target: GlcNAc(b1-6)GalNAc
# Outline: as §1
# GlcNAc3Prop(b1-4)GlcNAc = target: GlcNAc3Prop(b1-4)GlcNAc
# Outline: as §1
# [19] = target: GlcNAc6S(b1-3)Gal(b1-4)GlcNAc
# Outline: as §1
# Kdn(a2-3)Gal(b1-3)GalNAc = target: Kdn(a2-3)Gal(b1-3)GalNAc
# Outline: as §1
# Kdn(a2-3)Gal(b1-3)GlcNAc = target: Kdn(a2-3)Gal(b1-3)GlcNAc
# Outline: as §1
# Kdn(a2-3)Gal(b1-4)Glc = target: Kdn(a2-3)Gal(b1-4)Glc
# Outline: as §1
# Kdn(a2-3)Gal(b1-4)GlcNAc = target: Kdn(a2-3)Gal(b1-4)GlcNAc
# Outline: as §1
# [20] = target: Kdn(a2-3)Gal(b1-4)[Fuc(a1-3)]GlcNAc
# Outline: as §1
# Kdn(a2-6)Gal(b1-4)GlcNAc = target: Kdn(a2-6)Gal(b1-4)GlcNAc
# Outline: as §1
# [21] = target: Man(a1-2)Man(a1-2)Man(a1-3)Man
# Outline: as §1
# [22] = target: Man(a1-2)Man(a1-2)Man(a1-6)[Man(a1-3)]Man
# Outline: as §1
# Man(a1-2)Man(a1-3)Man = target: Man(a1-2)Man(a1-3)Man
# Outline: as §1
# [23] = target: Man(a1-2)Man(a1-3)[Man(a1-2)Man(a1-6)]Man
# Outline: as §1
# [24] = target: Man(a1-2)Man(a1-3)[Man(a1-2)Man(a1-6)]Man(a1-6)[Man(a1-2)Man(a1-2)Man(a1-3)]Man
# Outline: as §1
# [25] = target: Man(a1-2)Man(a1-3)[Man(a1-2)Man(a1-6)]Man(a1-6)[Man(a1-2)Man(a1-2)Man(a1-3)]Man(b1-4)GlcNAc(b1-4)GlcNAc
# Outline: as §1
# [26] = target: Man(a1-2)Man(a1-3)[Man(a1-6)]Man(a1-6)[Man(a1-2)Man(a1-3)]Man(b1-4)GlcNAc(b1-4)GlcNAc
# Outline: as §1
# [27] = target: Man(a1-2)Man(a1-6)[Man(a1-3)]Man(a1-6)[Man(a1-2)Man(a1-2)Man(a1-3)]Man
# Outline: as §1
# [28] = target: Man(a1-2)Man(a1-6)[Man(a1-3)]Man(a1-6)[Man(a1-2)Man(a1-2)Man(a1-3)]Man(b1-4)GlcNAc(b1-4)GlcNAc
# Outline: as §1
# Man(a1-3)[Man(a1-6)]Man = target: Man(a1-3)[Man(a1-6)]Man
# Outline: as §1
# [29] = target: Man(a1-3)[Man(a1-6)]Man(a1-6)[Man(a1-2)Man(a1-3)]Man(b1-4)GlcNAc(b1-4)GlcNAc
# Outline: as §1
# [30] = target: Man(a1-3)[Man(a1-6)]Man(a1-6)[Man(a1-3)]Man
# Outline: as §1
# [31] = target: Man(a1-3)[Man(a1-6)]Man(a1-6)[Man(a1-3)]Man(b1-4)GlcNAc(b1-4)GlcNAc
# Outline: as §1
# [32] = target: Man(a1-3)[Man(a1-6)]Man(b1-4)GlcNAc(b1-4)GlcNAc
# Outline: as §1
# [33] = target: Man(a1-3)[Man(a1-6)]Man(b1-4)GlcNAc(b1-4)[Fuc(a1-6)]GlcNAc
# Outline: as §1
binder,measurement,setting,value
B1,glycan array binding signal (z-score),[1],2.06
same,glycan array binding signal (z-score),[2],0.98
same,glycan array binding signal (z-score),[3],1.15
same,glycan array binding signal (z-score),[4],-0.682
same,glycan array binding signal (z-score),[5],-0.219
same,glycan array binding signal (z-score),[6],-0.237
same,glycan array binding signal (z-score),[7],0.063
same,glycan array binding signal (z-score),[8],-0.491
same,glycan array binding signal (z-score),[9],-0.827
same,glycan array binding signal (z-score),GlcNAc(b1-3)GalNAc,-0.487
same,glycan array binding signal (z-score),GlcNAc(b1-3)Man,0.325
same,glycan array binding signal (z-score),[10],0.049
same,glycan array binding signal (z-score),[11],-0.781
same,glycan array binding signal (z-score),[12],-0.746
same,glycan array binding signal (z-score),[13],-0.414
same,glycan array binding signal (z-score),GlcNAc(b1-4)GlcNAc,0.004
same,glycan array binding signal (z-score),[14],-0.831
same,glycan array binding signal (z-score),[15],-0.94
same,glycan array binding signal (z-score),[16],-0.956
same,glycan array binding signal (z-score),[17],-0.326
same,glycan array binding signal (z-score),[18],-0.079
same,glycan array binding signal (z-score),GlcNAc(b1-6)GalNAc,-0.253
same,glycan array binding signal (z-score),GlcNAc3Prop(b1-4)GlcNAc,0.836
same,glycan array binding signal (z-score),[19],0.878
same,glycan array binding signal (z-score),Kdn(a2-3)Gal(b1-3)GalNAc,0.994
same,glycan array binding signal (z-score),Kdn(a2-3)Gal(b1-3)GlcNAc,-0.206
same,glycan array binding signal (z-score),Kdn(a2-3)Gal(b1-4)Glc,0.097
same,glycan array binding signal (z-score),Kdn(a2-3)Gal(b1-4)GlcNAc,-0.51
same,glycan array binding signal (z-score),[20],0.475
same,glycan array binding signal (z-score),Kdn(a2-6)Gal(b1-4)GlcNAc,0.389
same,glycan array binding signal (z-score),[21],-0.881
same,glycan array binding signal (z-score),[22],-0.36
same,glycan array binding signal (z-score),Man(a1-2)Man(a1-3)Man,0.184
same,glycan array binding signal (z-score),[23],-0.328
same,glycan array binding signal (z-score),[24],-0.141
same,glycan array binding signal (z-score),[25],0.056
same,glycan array binding signal (z-score),[26],-0.265
same,glycan array binding signal (z-score),[27],-0.83
same,glycan array binding signal (z-score),[28],0.559
same,glycan array binding signal (z-score),Man(a1-3)[Man(a1-6)]Man,0.315
same,glycan array binding signal (z-score),[29],1.61
same,glycan array binding signal (z-score),[30],0.957
same,glycan array binding signal (z-score),[31],-0.703
same,glycan array binding signal (z-score),[32],0.357
same,glycan array binding signal (z-score),[33],-0.21

# 13 successive records already listed:
binder,measurement,setting,value
B1,glycan array binding signal (z-score),[10],0.049
same,glycan array binding signal (z-score),[11],-0.781
same,glycan array binding signal (z-score),[12],-0.746
same,glycan array binding signal (z-score),[13],-0.414
same,glycan array binding signal (z-score),GlcNAc(b1-4)GlcNAc,0.004
same,glycan array binding signal (z-score),[14],-0.831
same,glycan array binding signal (z-score),[15],-0.94
same,glycan array binding signal (z-score),[16],-0.956
same,glycan array binding signal (z-score),[17],-0.326
same,glycan array binding signal (z-score),[18],-0.079
same,glycan array binding signal (z-score),GlcNAc(b1-6)GalNAc,-0.253
same,glycan array binding signal (z-score),GlcNAc3Prop(b1-4)GlcNAc,0.836
same,glycan array binding signal (z-score),[19],0.878
